Laboratory results: PubChem BioAssay AID1159584 (Peter MacCallum Cancer Centre, 2016)

Purpose: 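Genes that CDH1-null MCF10A cells selectively depend on to survive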 (primary screen)
Cells: human MCF10A breast epithelial cells, parental and CDH1-null
Reagents: siRNA against human genes
Measured: 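Cell viability by CellTiter-Glo ATP luminescence, each line scaled to the mean of mock wells across plates, then CDH1-null over parental ratio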
Direction: CDH1-null / parental viability ratio: higher = CDH1-null cells survive relatively better than parental; CDH1-null viability vs mock: higher = more viable CDH1-null cells
Shown is one part, drawn at random, of about 18,000 reagents tested. Not all columns of the deposit are shown. The record does not give: the amount of reagent, the time to read-out.

CAPN11 (GeneID 11131) — CDH1-null / parental viability ratio = 1.15; CDH1-null viability vs mock (fraction of mock) = 0.86
MYO1A (GeneID 4640) — CDH1-null / parental viability ratio = 1.09; CDH1-null viability vs mock (fraction of mock) = 0.98
ACTBL2 (GeneID 345651) — CDH1-null / parental viability ratio = 0.88; CDH1-null viability vs mock (fraction of mock) = 0.9
TFAP2B (GeneID 7021) — CDH1-null / parental viability ratio = 1.07; CDH1-null viability vs mock (fraction of mock) = 1.08
CRB1 (GeneID 23418) — CDH1-null / parental viability ratio = 0.88; CDH1-null viability vs mock (fraction of mock) = 1.12
KRTAP26-1 (GeneID 388818) — CDH1-null / parental viability ratio = 0.91; CDH1-null viability vs mock (fraction of mock) = 0.93
HNRNPH3 (GeneID 3189) — CDH1-null / parental viability ratio = 0.95; CDH1-null viability vs mock (fraction of mock) = 0.53
ZNF397 (GeneID 84307) — CDH1-null / parental viability ratio = 0.78; CDH1-null viability vs mock (fraction of mock) = 0.76
ACSF2 (GeneID 80221) — CDH1-null / parental viability ratio = 0.96; CDH1-null viability vs mock (fraction of mock) = 0.72
OR6M1 (GeneID 390261) — CDH1-null / parental viability ratio = 1.29; CDH1-null viability vs mock (fraction of mock) = 0.98
OPRL1 (GeneID 4987) — CDH1-null / parental viability ratio = 0.81; CDH1-null viability vs mock (fraction of mock) = 0.72
KISS1 (GeneID 3814) — CDH1-null / parental viability ratio = 1.27; CDH1-null viability vs mock (fraction of mock) = 0.84
KCNIP4 (GeneID 80333) — CDH1-null / parental viability ratio = 1.17; CDH1-null viability vs mock (fraction of mock) = 0.96
SOHLH2 (GeneID 54937) — CDH1-null / parental viability ratio = 1.07; CDH1-null viability vs mock (fraction of mock) = 0.9
CFAP300 (GeneID 85016) — CDH1-null / parental viability ratio = 0.99; CDH1-null viability vs mock (fraction of mock) = 0.7
ZBTB26 (GeneID 57684) — CDH1-null / parental viability ratio = 0.91; CDH1-null viability vs mock (fraction of mock) = 0.62
PHACTR1 (GeneID 221692) — CDH1-null / parental viability ratio = 0.88; CDH1-null viability vs mock (fraction of mock) = 0.74
CALML3 (GeneID 810) — CDH1-null / parental viability ratio = 1.08; CDH1-null viability vs mock (fraction of mock) = 0.65
HP1BP3 (GeneID 50809) — CDH1-null / parental viability ratio = 0.95; CDH1-null viability vs mock (fraction of mock) = 0.92
PASD1 (GeneID 139135) — CDH1-null / parental viability ratio = 0.96; CDH1-null viability vs mock (fraction of mock) = 0.86
LGALS1 (GeneID 3956) — CDH1-null / parental viability ratio = 1.08; CDH1-null viability vs mock (fraction of mock) = 0.65
SCYL1 (GeneID 57410) — CDH1-null / parental viability ratio = 0.93; CDH1-null viability vs mock (fraction of mock) = 0.99
OR2L13 (GeneID 284521) — CDH1-null / parental viability ratio = 0.84; CDH1-null viability vs mock (fraction of mock) = 0.76
PPFIBP1 (GeneID 8496) — CDH1-null / parental viability ratio = 0.97; CDH1-null viability vs mock (fraction of mock) = 0.91
GPR18 (GeneID 2841) — CDH1-null / parental viability ratio = 0.79; CDH1-null viability vs mock (fraction of mock) = 0.66
DYNC1I2 (GeneID 1781) — CDH1-null / parental viability ratio = 0.9; CDH1-null viability vs mock (fraction of mock) = 0.7
PCOTH (GeneID 542767) — CDH1-null / parental viability ratio = 1.02; CDH1-null viability vs mock (fraction of mock) = 0.96
SLC1A4 (GeneID 6509) — CDH1-null / parental viability ratio = 1.07; CDH1-null viability vs mock (fraction of mock) = 1.01
STC1 (GeneID 6781) — CDH1-null / parental viability ratio = 0.83; CDH1-null viability vs mock (fraction of mock) = 0.55
KHDRBS1 (GeneID 10657) — CDH1-null / parental viability ratio = 0.88; CDH1-null viability vs mock (fraction of mock) = 0.71
GTF2IRD2 (GeneID 84163) — CDH1-null / parental viability ratio = 1.43; CDH1-null viability vs mock (fraction of mock) = 0.6
EMP3 (GeneID 2014) — CDH1-null / parental viability ratio = 1.2; CDH1-null viability vs mock (fraction of mock) = 0.72
NDUFS8 (GeneID 4728) — CDH1-null / parental viability ratio = 0.97; CDH1-null viability vs mock (fraction of mock) = 1.14
TRIM26 (GeneID 7726) — CDH1-null / parental viability ratio = 0.99; CDH1-null viability vs mock (fraction of mock) = 0.94
C8orf34 (GeneID 116328) — CDH1-null / parental viability ratio = 0.84; CDH1-null viability vs mock (fraction of mock) = 0.9
RPL3 (GeneID 6122) — CDH1-null / parental viability ratio = 1.29; CDH1-null viability vs mock (fraction of mock) = 0.36
STYX (GeneID 6815) — CDH1-null / parental viability ratio = 1.7; CDH1-null viability vs mock (fraction of mock) = 0.78
GNGT2 (GeneID 2793) — CDH1-null / parental viability ratio = 0.92; CDH1-null viability vs mock (fraction of mock) = 0.66
ASB15 (GeneID 142685) — CDH1-null / parental viability ratio = 0.95; CDH1-null viability vs mock (fraction of mock) = 0.76
SLC19A3 (GeneID 80704) — CDH1-null / parental viability ratio = 0.95; CDH1-null viability vs mock (fraction of mock) = 1.2
ZNF442 (GeneID 79973) — CDH1-null / parental viability ratio = 0.99; CDH1-null viability vs mock (fraction of mock) = 0.81
AGBL1 (GeneID 123624) — CDH1-null / parental viability ratio = 1.08; CDH1-null viability vs mock (fraction of mock) = 0.97
LGALS3BP (GeneID 3959) — CDH1-null / parental viability ratio = 1.28; CDH1-null viability vs mock (fraction of mock) = 1.13
BRI3 (GeneID 25798) — CDH1-null / parental viability ratio = 1.13; CDH1-null viability vs mock (fraction of mock) = 1.08
ARMC2 (GeneID 84071) — CDH1-null / parental viability ratio = 0.82; CDH1-null viability vs mock (fraction of mock) = 0.66
